Results from paper PMC11820944, “Safirinium Fluorescent “Click” Molecular Probes: Synthesis, CuAAC Reactions, and Microscopic Imaging” (Molecules, 2025).

Test system: CHO-K1 cells
Experiment: Cellular uptake and distribution by fluorescence (confocal) microscopy
Type: cell-based, Chinese hamster
Details: 10 µM, 30 min
Description: Figure 6 Cellular uptake and intracellular distribution of selected probes (1 and 6) and triazole derivatives (11, 12, 13, and 15) in Chinese hamster ovary cells. CHO-K1 cells were cultured overnight and then incubated with the tested compounds (10 μM). Representative images (100× magnification) illustrating intracellular distribution of the compounds in CHO-K1 cells were captured after 30 min of incubation with the tested compounds. Scale bar = 20 μm.
CHO-K1 cells were seeded at a density of 2 × 10^5/well in 12-well plates containing cover slips at the bottom and cells were incubated for 24 h. Then, cells were fixed in 3.7% formaldehyde in PBS for 10 min in 37 °C, washed twice with PBS, and stained with compound solution (10 µM) for 30 min. After this time, the cells were rinsed 2 times with Gibco FluoroBrite DMEM and a coverslip was placed on a stock carrier with drops of culture medium. Finally, slides were mounted in ProLong™ Glass Antifade Mountant and visualized under an A1 confocal system built on a Nikon Eclipse Ti-E microscope (Japan) equipped with 405 and 561 nm diode lasers and a Plan Apo 100×/1.4 Oil DIC objective.

SMILES	Stability and fluorescence under microscopic observation conditions
C#CCNC(=O)C1=C(C)C=C(C)N2C[N+](CC)(CC)N=C12.[Br-] [Compound 1, 2,2-Diethyl-5,7-dimethyl-8-[(prop-2-yn-1-yl)carbamoyl]-2H,3H-[1,2,4]triazolo [4,3-a]pyridin-2-ium bromide]	remain stable and fluorescent
CC[N+]1(CC)CN2C(C)=CC(C)=C(C(=O)NCCCCCN=[N+]=[N-])C2=N1.[Br-] [Compound 6, 8-((5-Azidopentyl)carbamoyl)-2,2-diethyl-5,7-dimethyl-2,3-dihydro-[1,2,4]triazolo[4,3-a]pyridin-2-ium bromide]	remain stable and fluorescent
